The supplement of paper PMC11732987, “Enantioselective OTUD7B fragment discovery through chemoproteomics screening and high-throughput optimisation” (Communications Chemistry, 2025)
Some of the results follow. The data scatter; read single values as rough.

Protein sequences, listed by entry. Tags and fused reporters are not part of them. Lines headed by an entry give the natural chain unless they say otherwise; changes in a name come on top. Residues count along the entry.
UniProt P52701: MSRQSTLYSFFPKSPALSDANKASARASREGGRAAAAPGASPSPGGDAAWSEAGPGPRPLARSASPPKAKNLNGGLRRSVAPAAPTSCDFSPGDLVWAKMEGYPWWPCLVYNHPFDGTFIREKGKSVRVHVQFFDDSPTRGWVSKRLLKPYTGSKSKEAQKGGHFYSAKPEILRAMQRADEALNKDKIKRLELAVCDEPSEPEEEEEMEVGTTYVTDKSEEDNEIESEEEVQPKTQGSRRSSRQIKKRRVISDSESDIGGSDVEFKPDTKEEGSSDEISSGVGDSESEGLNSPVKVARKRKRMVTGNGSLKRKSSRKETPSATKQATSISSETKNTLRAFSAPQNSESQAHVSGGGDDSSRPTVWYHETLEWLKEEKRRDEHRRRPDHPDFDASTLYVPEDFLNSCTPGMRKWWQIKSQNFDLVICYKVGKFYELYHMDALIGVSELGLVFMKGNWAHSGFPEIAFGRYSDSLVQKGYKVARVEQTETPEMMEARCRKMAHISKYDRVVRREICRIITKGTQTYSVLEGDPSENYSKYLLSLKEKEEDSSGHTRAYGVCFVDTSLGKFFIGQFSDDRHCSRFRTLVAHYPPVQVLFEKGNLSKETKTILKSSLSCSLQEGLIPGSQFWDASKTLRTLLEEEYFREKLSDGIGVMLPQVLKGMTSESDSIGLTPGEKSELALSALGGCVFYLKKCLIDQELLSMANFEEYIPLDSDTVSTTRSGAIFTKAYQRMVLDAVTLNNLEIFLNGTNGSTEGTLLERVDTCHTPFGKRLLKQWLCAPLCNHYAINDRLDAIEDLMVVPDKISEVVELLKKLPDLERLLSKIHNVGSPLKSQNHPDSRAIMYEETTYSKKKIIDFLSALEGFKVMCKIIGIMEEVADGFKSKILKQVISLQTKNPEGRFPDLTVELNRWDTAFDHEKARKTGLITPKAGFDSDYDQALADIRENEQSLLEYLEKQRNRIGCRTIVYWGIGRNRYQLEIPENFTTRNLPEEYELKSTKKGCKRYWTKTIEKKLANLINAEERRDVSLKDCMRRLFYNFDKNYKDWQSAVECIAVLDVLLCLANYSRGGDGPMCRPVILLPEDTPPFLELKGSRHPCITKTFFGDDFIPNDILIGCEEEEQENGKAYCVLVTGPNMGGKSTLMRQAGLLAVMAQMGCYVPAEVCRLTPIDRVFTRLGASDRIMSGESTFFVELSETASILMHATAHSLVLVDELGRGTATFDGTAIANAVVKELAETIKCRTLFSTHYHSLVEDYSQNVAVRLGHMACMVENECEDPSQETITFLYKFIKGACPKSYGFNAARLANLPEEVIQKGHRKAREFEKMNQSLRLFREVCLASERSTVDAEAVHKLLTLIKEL
UniProt Q03426: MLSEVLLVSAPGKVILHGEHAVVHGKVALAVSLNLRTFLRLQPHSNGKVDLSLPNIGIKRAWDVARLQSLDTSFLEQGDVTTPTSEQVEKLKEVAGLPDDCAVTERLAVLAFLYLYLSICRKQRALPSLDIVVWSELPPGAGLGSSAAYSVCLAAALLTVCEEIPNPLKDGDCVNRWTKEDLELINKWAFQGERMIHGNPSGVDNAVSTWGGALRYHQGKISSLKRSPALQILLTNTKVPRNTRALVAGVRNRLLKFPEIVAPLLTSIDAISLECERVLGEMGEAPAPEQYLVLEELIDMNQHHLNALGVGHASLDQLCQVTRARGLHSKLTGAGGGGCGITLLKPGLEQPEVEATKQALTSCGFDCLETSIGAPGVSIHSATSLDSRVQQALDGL
UniProt Q13330: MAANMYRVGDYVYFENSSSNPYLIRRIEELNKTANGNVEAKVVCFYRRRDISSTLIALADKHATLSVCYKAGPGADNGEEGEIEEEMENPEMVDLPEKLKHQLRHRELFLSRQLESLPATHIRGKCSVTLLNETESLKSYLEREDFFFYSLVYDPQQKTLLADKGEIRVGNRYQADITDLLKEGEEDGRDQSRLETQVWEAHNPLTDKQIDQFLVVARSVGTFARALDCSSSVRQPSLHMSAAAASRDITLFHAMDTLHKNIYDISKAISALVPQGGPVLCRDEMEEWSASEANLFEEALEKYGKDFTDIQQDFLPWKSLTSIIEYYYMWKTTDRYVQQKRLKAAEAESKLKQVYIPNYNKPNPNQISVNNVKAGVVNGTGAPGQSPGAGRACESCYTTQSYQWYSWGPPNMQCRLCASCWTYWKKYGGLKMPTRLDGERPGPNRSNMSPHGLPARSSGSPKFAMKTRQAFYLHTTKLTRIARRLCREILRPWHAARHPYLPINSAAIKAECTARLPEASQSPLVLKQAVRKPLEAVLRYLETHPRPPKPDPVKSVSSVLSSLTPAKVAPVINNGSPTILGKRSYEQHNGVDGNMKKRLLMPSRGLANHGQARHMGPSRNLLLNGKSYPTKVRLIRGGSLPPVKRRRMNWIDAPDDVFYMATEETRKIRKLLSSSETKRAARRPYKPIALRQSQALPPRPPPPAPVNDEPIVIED
UniProt Q6N069, 804-824: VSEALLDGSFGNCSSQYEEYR
UniProt Q6IA69: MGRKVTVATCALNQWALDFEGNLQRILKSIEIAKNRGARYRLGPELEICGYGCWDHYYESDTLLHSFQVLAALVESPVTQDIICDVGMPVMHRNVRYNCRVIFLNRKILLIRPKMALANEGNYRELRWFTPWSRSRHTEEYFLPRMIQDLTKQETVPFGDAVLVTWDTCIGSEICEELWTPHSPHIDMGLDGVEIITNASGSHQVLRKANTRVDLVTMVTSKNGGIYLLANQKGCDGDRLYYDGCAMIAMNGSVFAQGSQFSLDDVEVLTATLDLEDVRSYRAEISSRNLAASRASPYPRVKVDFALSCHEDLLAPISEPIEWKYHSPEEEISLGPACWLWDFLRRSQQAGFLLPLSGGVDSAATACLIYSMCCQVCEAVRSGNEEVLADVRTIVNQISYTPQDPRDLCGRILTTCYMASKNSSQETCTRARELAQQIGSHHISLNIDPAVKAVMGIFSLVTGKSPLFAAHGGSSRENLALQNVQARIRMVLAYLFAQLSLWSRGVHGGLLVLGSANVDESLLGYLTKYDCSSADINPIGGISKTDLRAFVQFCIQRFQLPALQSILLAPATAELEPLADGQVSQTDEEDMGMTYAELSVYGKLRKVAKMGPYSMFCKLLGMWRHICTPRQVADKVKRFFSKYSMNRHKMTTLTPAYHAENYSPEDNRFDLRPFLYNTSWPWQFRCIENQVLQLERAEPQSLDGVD
UniProt Q96RE7: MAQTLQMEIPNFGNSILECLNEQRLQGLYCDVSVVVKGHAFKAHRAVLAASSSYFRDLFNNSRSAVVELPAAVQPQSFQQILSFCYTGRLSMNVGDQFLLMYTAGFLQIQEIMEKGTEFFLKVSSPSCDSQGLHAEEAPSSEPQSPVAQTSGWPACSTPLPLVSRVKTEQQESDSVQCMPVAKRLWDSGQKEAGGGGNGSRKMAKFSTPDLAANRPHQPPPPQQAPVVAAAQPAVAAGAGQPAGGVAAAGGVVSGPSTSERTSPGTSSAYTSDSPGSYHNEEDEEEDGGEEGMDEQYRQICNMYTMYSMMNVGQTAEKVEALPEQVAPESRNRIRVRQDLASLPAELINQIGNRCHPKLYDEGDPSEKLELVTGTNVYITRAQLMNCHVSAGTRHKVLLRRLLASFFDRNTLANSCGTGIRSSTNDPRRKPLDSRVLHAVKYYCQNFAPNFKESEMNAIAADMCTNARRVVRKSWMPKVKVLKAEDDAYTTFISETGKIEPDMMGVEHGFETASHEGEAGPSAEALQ
UniProt O94832: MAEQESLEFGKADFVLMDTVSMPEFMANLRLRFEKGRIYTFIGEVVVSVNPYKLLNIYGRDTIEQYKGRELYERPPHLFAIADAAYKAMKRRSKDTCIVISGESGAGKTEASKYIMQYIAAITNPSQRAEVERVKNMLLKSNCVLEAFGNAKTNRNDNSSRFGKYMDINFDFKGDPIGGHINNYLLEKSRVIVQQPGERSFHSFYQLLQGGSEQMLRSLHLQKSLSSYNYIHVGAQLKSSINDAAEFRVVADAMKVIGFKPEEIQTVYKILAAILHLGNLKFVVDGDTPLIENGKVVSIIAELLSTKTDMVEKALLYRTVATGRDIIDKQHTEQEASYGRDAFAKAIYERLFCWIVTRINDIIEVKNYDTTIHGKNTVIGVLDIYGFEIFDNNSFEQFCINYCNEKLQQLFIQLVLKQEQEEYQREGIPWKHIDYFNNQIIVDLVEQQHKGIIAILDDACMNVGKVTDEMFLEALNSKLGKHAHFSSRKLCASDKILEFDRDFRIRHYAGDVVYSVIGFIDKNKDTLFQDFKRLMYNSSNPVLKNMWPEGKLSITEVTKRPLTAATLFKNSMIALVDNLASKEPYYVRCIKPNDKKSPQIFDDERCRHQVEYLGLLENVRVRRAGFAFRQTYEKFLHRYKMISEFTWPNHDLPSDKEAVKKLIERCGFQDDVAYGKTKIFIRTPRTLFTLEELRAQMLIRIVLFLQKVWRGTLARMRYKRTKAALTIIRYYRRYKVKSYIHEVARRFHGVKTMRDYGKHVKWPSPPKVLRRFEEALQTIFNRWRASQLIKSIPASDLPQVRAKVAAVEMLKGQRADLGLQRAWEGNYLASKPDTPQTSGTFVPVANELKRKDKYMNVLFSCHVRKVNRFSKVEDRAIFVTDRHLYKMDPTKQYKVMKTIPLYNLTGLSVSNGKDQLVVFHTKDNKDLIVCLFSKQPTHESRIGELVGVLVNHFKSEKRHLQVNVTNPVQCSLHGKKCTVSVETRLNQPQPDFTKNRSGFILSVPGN
UniProt Q9H4K7: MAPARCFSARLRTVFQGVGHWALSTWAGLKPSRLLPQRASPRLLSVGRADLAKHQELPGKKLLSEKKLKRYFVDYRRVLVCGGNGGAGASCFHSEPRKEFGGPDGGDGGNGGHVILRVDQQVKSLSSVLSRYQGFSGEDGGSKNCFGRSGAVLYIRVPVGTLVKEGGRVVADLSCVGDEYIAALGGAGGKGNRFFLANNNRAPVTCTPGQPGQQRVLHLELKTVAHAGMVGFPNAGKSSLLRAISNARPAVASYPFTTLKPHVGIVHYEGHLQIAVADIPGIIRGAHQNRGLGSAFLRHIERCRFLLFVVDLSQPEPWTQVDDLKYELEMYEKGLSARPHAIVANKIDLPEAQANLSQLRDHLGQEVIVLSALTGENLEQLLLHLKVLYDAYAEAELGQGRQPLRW
UniProt O43795: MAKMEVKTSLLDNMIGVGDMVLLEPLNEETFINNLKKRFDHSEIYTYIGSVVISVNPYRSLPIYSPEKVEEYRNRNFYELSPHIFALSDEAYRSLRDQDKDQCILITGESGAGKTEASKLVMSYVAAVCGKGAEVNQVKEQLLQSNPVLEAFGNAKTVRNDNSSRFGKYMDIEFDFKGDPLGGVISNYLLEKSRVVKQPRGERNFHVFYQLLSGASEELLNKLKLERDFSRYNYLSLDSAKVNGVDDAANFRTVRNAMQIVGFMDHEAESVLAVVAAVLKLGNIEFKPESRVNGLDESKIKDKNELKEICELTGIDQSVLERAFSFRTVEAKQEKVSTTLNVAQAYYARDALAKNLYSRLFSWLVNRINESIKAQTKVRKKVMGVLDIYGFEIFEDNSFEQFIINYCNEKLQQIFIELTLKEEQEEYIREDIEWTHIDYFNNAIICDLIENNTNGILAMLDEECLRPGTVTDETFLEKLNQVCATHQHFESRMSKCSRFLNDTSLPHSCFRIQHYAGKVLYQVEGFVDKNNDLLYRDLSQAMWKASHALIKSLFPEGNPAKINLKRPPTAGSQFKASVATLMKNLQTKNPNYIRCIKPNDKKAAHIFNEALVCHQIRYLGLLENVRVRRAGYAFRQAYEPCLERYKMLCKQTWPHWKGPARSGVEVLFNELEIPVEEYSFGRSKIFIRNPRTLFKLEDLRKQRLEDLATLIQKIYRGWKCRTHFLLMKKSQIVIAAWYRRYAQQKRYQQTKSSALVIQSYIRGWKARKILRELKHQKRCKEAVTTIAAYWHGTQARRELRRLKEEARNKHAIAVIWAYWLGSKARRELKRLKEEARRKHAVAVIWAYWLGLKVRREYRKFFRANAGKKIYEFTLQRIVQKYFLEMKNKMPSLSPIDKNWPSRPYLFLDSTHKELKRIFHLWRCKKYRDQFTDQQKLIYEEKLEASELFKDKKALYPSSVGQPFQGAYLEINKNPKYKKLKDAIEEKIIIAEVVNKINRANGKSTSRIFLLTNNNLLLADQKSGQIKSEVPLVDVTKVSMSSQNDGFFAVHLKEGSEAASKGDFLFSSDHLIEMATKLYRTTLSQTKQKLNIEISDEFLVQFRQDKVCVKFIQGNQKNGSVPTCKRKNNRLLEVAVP
UniProt P10244, 5-26: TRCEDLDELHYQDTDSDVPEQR

Compound: ClCC(=O)N[C@@H]1CCCc2ccccc12
Assay: log2 mean competition ratio of IA-DTB cysteine labelling (DMSO/compound) (log2 ratio); higher = stronger cysteine engagement by compound
Details: 50 µM; treatment time: 4 h; cell line lysate: HEK293T
Description: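 IA-DTB competitive cysteine chemoproteomics in HEK293T RIPA lysate. Lysates were treated with compound 29 or 30 at 50 or 200 µM for 4 h, then IA-DTB (500 µM, 1 h), trypsin-digested, NeutrAvidin-enriched and analysed by diaPASEF. Competition ratio = intensity DMSO / intensity compound (n=4 treated, n=64 DMSO); binding: mean log2 CR ≥ 1 and p ≤ 0.05 plus QC filters. Target is the cysteine site.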

Row | Target | log2 mean competition ratio
1 | MSH6 C765 (UniProt P52701) | -0.0971
2 | MTR C400 (UniProt Q99707) | -0.132
3 | MSH6 C1129 (UniProt P52701) | 0.0896
4 | MVK C101 (UniProt Q03426) | -0.154
5 | MTA1 C229 (UniProt Q13330) | -0.117
6 | N4BP2L2 C354 | 0.368
7 | MUTYH C514 | 0.0189
8 | MTFR1 C89 (UniProt Q15390) | 0.00352
9 | NAA16 C816 (UniProt Q6N069) | -0.359
10 | MVB12A C33 (UniProt Q96EY5) | -0.119
11 | NADSYN1 C428 (UniProt Q6IA69) | -0.206
12 | MYBBP1A C338 (UniProt Q9BQG0) | 0.396
13 | NACC1 C178 (UniProt Q96RE7) | -0.126
14 | MYO1D C460 (UniProt O94832) | -0.19
15 | MRPL43 C91 (UniProt Q8N983) | -0.0573
16 | MYCBP2 C4638 (UniProt O75592) | -0.0882
17 | MTG2 C206 (UniProt Q9H4K7) | 0.409
18 | MYO9A C1973 (UniProt B2RTY4) | -0.162
19 | MYO1B C509 (UniProt O43795) | 0.3
20 | MYBL2 C7 (UniProt P10244) | -0.133

Same assay, conditions: 200 µM; treatment time: 4 h; cell line lysate: HEK293T

Row | Target | log2 mean competition ratio
21 | MSH6 C765 (UniProt P52701) | 0.149
22 | MTR C400 (UniProt Q99707) | 0.801
23 | MSH6 C1129 (UniProt P52701) | -0.011
24 | MVK C101 (UniProt Q03426) | -0.0324
25 | MTA1 C229 (UniProt Q13330) | 0.017
26 | N4BP2L2 C354 | 0.489
27 | MUTYH C514 | 0.437
28 | MTFR1 C89 (UniProt Q15390) | 0.132
29 | NAA16 C816 (UniProt Q6N069) | -0.0203
30 | MVB12A C33 (UniProt Q96EY5) | -0.227
31 | NADSYN1 C428 (UniProt Q6IA69) | -0.032
32 | MYBBP1A C338 (UniProt Q9BQG0) | -0.17
33 | NACC1 C178 (UniProt Q96RE7) | 0.0871
34 | MYO1D C460 (UniProt O94832) | 0.0793
35 | MRPL43 C91 (UniProt Q8N983) | -0.128
36 | MYCBP2 C4638 (UniProt O75592) | -0.19
37 | MTG2 C206 (UniProt Q9H4K7) | 0.0428
38 | MYO9A C1973 (UniProt B2RTY4) | -0.108
39 | MYO1B C509 (UniProt O43795) | 0.136
40 | MYBL2 C7 (UniProt P10244) | 0.0292
